The list is a part of this screen's results and no random one: it gathers tests that were run many times, whatever their T/C, doses with no T/C, and many T/C values between a quarter and a half above the control. Further doses and runs are listed elsewhere. T/C gives the treated animals as a percentage of the vehicle group. Some entries give survivors of the animals treated and no T/C: the source holds a T/C of zero for them, seemingly a mark for toxic or unscored doses. Some doses without a T/C left all or most animals alive at the check, yet need not have been tolerated: survival well below the control is almost never listed, so the zero probably covers shortened survival too. Survivors were counted at the toxicity check, usually on the fifth day, unless a day is given; later deaths do not show. Schedules are NCI's codes, taken here to give the interval after Q, in days (D) or hours (H), and the number of doses after X. For survival time, the PubChem record calls one and a half times the control and up active, and a quarter to a half above the control has no call in these data; cut-offs in other NCI protocols can differ. Some T/C values are followed by the survivors on the day toxicity was checked, most often the fifth; without a count, all were alive then.
Test system: L1210 leukemia ip in BDF1 mice, survival T/C
Assay: NCI In Vivo Anticancer Drug Screen. Data for tumor model L1210 Leukemia (intraperitoneal) in B6D2F1 (BDF1) mice
Details: T/C endpoint: mean survival time, higher T/C = longer survival
[1] = dose: 100.0 mg/kg/injection, schedule: Q01DX001 (ip), vehicle: Klucel (hydroxypropylcellulose) (HPC)
[2] = dose: 400.0 mg/kg/injection, schedule: Q01DX001 (ip), vehicle: Klucel (hydroxypropylcellulose) (HPC)
[3] = dose: 100.0 mg/kg/injection, schedule: Q04DX003 (ip), vehicle: Klucel (hydroxypropylcellulose) (HPC)
[4] = dose: 200.0 mg/kg/injection, schedule: Q04DX003 (ip), vehicle: Klucel (hydroxypropylcellulose) (HPC)
[5] = dose: 400.0 mg/kg/injection, schedule: Q04DX003 (ip), vehicle: Klucel (hydroxypropylcellulose) (HPC)
[6] = dose: 50.0 mg/kg/injection, schedule: Q04DX003 (ip), vehicle: Klucel (hydroxypropylcellulose) (HPC)
[7] = dose: 400.0 mg/kg/injection, schedule: Q01DX009 (ip), vehicle: Klucel (hydroxypropylcellulose) (HPC)

`O=C(CCc1ccccc1)NC1CCCCC1` was tested, and the survivor count [1] was 6 of 6, the survivor count (dose: 200.0 mg/kg/injection, schedule: Q01DX001 (ip), vehicle: Klucel (hydroxypropylcellulose) (HPC)) was 6 of 6 and the survivor count [2] was 6 of 6.

With `Nc1cccc(OCCCCc2ccccc2)c1` the survivor count (dose: 400.0 mg/kg/injection, schedule: Q04DX003 (ip), vehicle: saline with Tween-80) was 5 of 6.

`CCCCCCCCCCCCCCCCCCS(=O)(=O)CCCl` was tested, and the survivor count [3] was 6 of 6.

In the case of `O=C(CCN1CC1)OCCc1ccccc1`, the survivor count (dose: 100.0 mg/kg/injection, schedule: Q01DX009 (ip), vehicle: Klucel (hydroxypropylcellulose) (HPC)) was 4 of 6, the survivor count [4] was 0 of 6 and the survivor count [5] was 0 of 6.

`O=NN(CCCl)C(=O)NC1c2cc(Cl)ccc2-c2c(Cl)cc(Cl)cc21` (centres undefined) was tested, and the T/C (dose: 15.0 mg/kg/injection, schedule: Q04DX003 (ip), vehicle: Klucel (hydroxypropylcellulose) (HPC)) was 144 % of control, the T/C (dose: 23.0 mg/kg/injection, schedule: Q04DX003 (ip), vehicle: Klucel (hydroxypropylcellulose) (HPC)) was 147 % of control and the T/C (dose: 35.0 mg/kg/injection, schedule: Q04DX003 (ip), vehicle: Klucel (hydroxypropylcellulose) (HPC)) was 127 % of control [5 of 6 alive]. The T/C [6] was 129 % of control, the T/C (dose: 75.0 mg/kg/injection, schedule: Q04DX003 (ip), vehicle: Klucel (hydroxypropylcellulose) (HPC)) was 146 % of control and the T/C (dose: 80.0 mg/kg/injection, schedule: Q04DX003 (ip), vehicle: Klucel (hydroxypropylcellulose) (HPC)) was 125 % of control. The T/C [1] was 127 % of control, the T/C [3] was 137 % of control [5 of 6 alive] and the T/C (dose: 177.0 mg/kg/injection, schedule: Q01DX001 (ip), vehicle: Klucel (hydroxypropylcellulose) (HPC)) was 133 % of control. The T/C (dose: 177.0 mg/kg/injection, schedule: Q04DX003 (ip), vehicle: Klucel (hydroxypropylcellulose) (HPC)) was 130 % of control, the T/C (dose: 266.0 mg/kg/injection, schedule: Q01DX001 (ip), vehicle: Klucel (hydroxypropylcellulose) (HPC)) was 129 % of control and the T/C (dose: 266.0 mg/kg/injection, schedule: Q04DX003 (ip), vehicle: Klucel (hydroxypropylcellulose) (HPC)) was 140 % of control. The T/C [2] was 129 % of control.

`O=C(O)CCC(=O)Nc1ccc2c(c1)B(O)OC2` was tested, and the survivor count [4] was 6 of 6.

In the case of `O=C(O)C(F)(F)F`, the survivor count (dose: 100.0 mg/kg/injection, schedule: Q01DX001 (ip), vehicle: water) was 1 of 6.

In the case of `CCC1([N+](=O)[O-])COCOC1`, the survivor count [6] was 3 of 6 and the survivor count [3] was 0 of 6.

`Clc1ccc2nccnc2c1` was tested, and the survivor count [5] was 1 of 6.

With `Nc1ncnc(N)c1NC(=O)/C=C/c1ccccc1` the survivor count (dose: 400.0 mg/kg/injection, schedule: Q01DX001 (ip), vehicle: saline with Tween-80) was 3 of 6.

With `Cc1[nH]c2ccccc2c1C` the survivor count [7] was 1 of 6.

`Clc1cc(Cl)c2c(c1)Cc1cc(Cl)cc(N=Cc3ccc4c(c3)OCO4)c1-2` was tested, and the survivor count [7] was 3 of 6.

With `CC1N=C(c2ccccc2)C2(c3ccccc3)C(C)N12` (centres undefined) the survivor count [2] was 0 of 3.

`c1ccc2c3csc4ccccc4c-3nc2c1` was tested, and the survivor count [6] was 6 of 6, the survivor count (dose: 55.0 mg/kg/injection, schedule: Q01DX009 (ip), vehicle: Klucel (hydroxypropylcellulose) (HPC)) was 6 of 6 and the survivor count (dose: 80.0 mg/kg/injection, schedule: Q01DX009 (ip), vehicle: Klucel (hydroxypropylcellulose) (HPC)) was 0 of 6. For the same compound, the survivor count (dose: 100.0 mg/kg/injection, schedule: Q04DX003 (ip), vehicle: acetone) was 3 of 6, the survivor count (dose: 200.0 mg/kg/injection, schedule: Q04DX003 (ip), vehicle: acetone) was 0 of 6 and the survivor count (dose: 400.0 mg/kg/injection, schedule: Q04DX003 (ip), vehicle: acetone) was 0 of 6.

With `c1ccc(C2(c3ccccc3)CC([P+](c3ccccc3)(c3ccccc3)c3ccccc3)N=N2)cc1` (centres undefined) the survivor count (dose: 75.0 mg/kg/injection, schedule: Q01DX001 (ip), vehicle: saline) was 3 of 6, the survivor count (dose: 150.0 mg/kg/injection, schedule: Q01DX001 (ip), vehicle: saline) was 1 of 6 and the survivor count (dose: 300.0 mg/kg/injection, schedule: Q01DX001 (ip), vehicle: saline) was 0 of 6.

— PubChem BioAssay AID248 (DTP/NCI, 2004)
